Source: PubChem BioAssay AID1259425 (University of Nebraska Medical Center, 2018)

Aim: 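Seek colon cancer weak points whose silencing resembles KSR1 loss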 (primary screen)
System: HCT116 human colon cancer cells
Reagents: siRNA pool against human genes, 50 nM siRNA
Measurement: 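mRNA of six signature genes measured together by branched-DNA assay after 50 nM siRNA pool, blank removed, divided by geometric mean of two housekeeping genes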
Scale: BNIP3L mRNA: higher = more BNIP3L transcript after knockdown
This is a random part of about 14,000 reagents tested. Not all columns of the deposit are shown. The record does not give: the time to read-out.

PRELID3A — BNIP3L mRNA, set 1 = 0.156
TTC31 — BNIP3L mRNA, set 1 = 0.0874
ZNF207 — BNIP3L mRNA, set 1 = 0.152
BRF1 — BNIP3L mRNA, set 1 = 0.0834
ADAM18 — BNIP3L mRNA, set 1 = 0.151
ARL6IP4 — BNIP3L mRNA, set 1 = 0.114
ZNF398 — BNIP3L mRNA, set 1 = 0.0864
CNOT11 — BNIP3L mRNA, set 1 = 0.0543
FOS — BNIP3L mRNA, set 1 = 0.0878
A1BG — BNIP3L mRNA, set 1 = 0.0525
DVL3 — BNIP3L mRNA, set 1 = 0.079
MT-ND6 — BNIP3L mRNA, set 1 = 0.11
LY86 — BNIP3L mRNA, set 1 = 0.114
ACAP2 — BNIP3L mRNA, set 1 = 0.106
REEP2 — BNIP3L mRNA, set 1 = 0.0479
PCGF5 — BNIP3L mRNA, set 1 = 0.0562
ACR — BNIP3L mRNA, set 1 = 0.0415
AGGF1 — BNIP3L mRNA, set 1 = 0.0753
ERBIN — BNIP3L mRNA, set 1 = 0.0729
ATP6V1G2 — BNIP3L mRNA, set 1 = 0.119
G0S2 — BNIP3L mRNA, set 1 = 0.149
STXBP1 — BNIP3L mRNA, set 1 = 0.135
AGR2 — BNIP3L mRNA, set 1 = 0.0632
IPO13 — BNIP3L mRNA, set 1 = 0.128
LINGO1 — BNIP3L mRNA, set 1 = 0.156
CHP1 — BNIP3L mRNA, set 1 = 0.166
HSPA1L — BNIP3L mRNA, set 1 = 0.267
RNH1 — BNIP3L mRNA, set 1 = 0.128

A few values from the entries so far:
Value of PRELID3A under “BNIP3L mRNA, set 1”: 0.156
ACR, BNIP3L mRNA, set 1 → 0.0415
Under “BNIP3L mRNA, set 1”, ERBIN shows 0.0729
Value of BRF1 under “BNIP3L mRNA, set 1”: 0.0834
